# Patent publication US20050165047A1, “Crystalline fumarate salts of 1-azabicyclo[2.2.2]oct substituted furo[2,3-c]pyridinyl carboxamide and compositions and preparations thereof” (Pfizer Inc, priority 2002, published 2005)
# The source gives many values for each of these; only a part stands here.
# Experiment: Moisture sorption by DMSG on a controlled atmosphere microbalance
# Format: physicochemical
# Settings: 25° C.
# Method: The sorption of water by the solid lattice at a given relative humidity (RH) was measured by DMSG on a controlled atmosphere microbalance. Scans were carried out at 25° C. from 36% to 0% RH then ramped to 90% RH, and back down to 0% RH with a step size of 3% RH. A sample size of 8 to 14 mg was used. At each step, the balance was considered equilibrated when the mass change was less than 0.01 mg for five consecutive scans. There were 120 seconds between each scan.
# Table 3 provides the moisture sorption data at 25° C. for Crystal Forms Ia and Ib of N-[1-azabicyclo[2.2.2]oct-3-yl]furo[2,3-c]pyridine-5-carboxamide.
smiles,measurement,setting,value
"O=C(N[C@H]1CN2CCC1CC2)c1cc2ccoc2cn1 [Crystal Form Ia, N-[(3R)-1-azabicyclo[2.2.2]oct-3-yl]furo[2,3-c]pyridine-5-carboxamide]",% dMass,"RH 0.44%, 90-0% RH",0.002669%
same,% dMass,"RH 0.58%, 90-0% RH",0%
same,% dMass,"RH 2.02%, 90-0% RH",0.01334%
same,% dMass,"RH 5.66%, 90-0% RH",0.03114%
same,% dMass,"RH 8.84%, 90-0% RH",0.04092%
same,% dMass,"RH 12%, 90-0% RH",0.04537%
same,% dMass,"RH 15.18%, 90-0% RH",0.05426%
same,% dMass,"RH 18.42%, 90-0% RH",0.05871%
same,% dMass,"RH 21.92%, 90-0% RH",0.06494%
same,% dMass,"RH 25.16%, 90-0% RH",0.07028%
same,% dMass,"RH 25.92%, 36-0% RH",0.0854%
same,% dMass,"RH 28.4%, 90-0% RH",0.0765%
same,% dMass,"RH 29.02%, 36-0% RH",0.08985%
same,% dMass,"RH 31.6%, 90-0% RH",0.08451%
same,% dMass,"RH 31.62%, 36-0% RH",0.08985%
same,% dMass,"RH 34.84%, 90-0% RH",0.08807%
same,% dMass,"RH 38.08%, 90-0% RH",0.09607%
same,% dMass,"RH 41.42%, 90-0% RH",0.105%
same,% dMass,"RH 44.74%, 90-0% RH",0.113%
same,% dMass,"RH 47.94%, 90-0% RH",0.121%
same,% dMass,"RH 51%, 90-0% RH",0.1325%
same,% dMass,"RH 54.06%, 90-0% RH",0.1414%
same,% dMass,"RH 57.24%, 90-0% RH",0.1557%
same,% dMass,"RH 60.44%, 90-0% RH",0.169%
same,% dMass,"RH 63.18%, 90-0% RH",0.1824%
"O=C(N[C@H]1CN2CCC1CC2)c1cc2ccoc2cn1 [Crystal Form Ib, N-[(3R)-1-azabicyclo[2.2.2]oct-3-yl]furo[2,3-c]pyridine-5-carboxamide]",% dMass,"RH 1.24%, 90-0% RH",0%
same,% dMass,"RH 3.88%, 90-0% RH",0.03501%
same,% dMass,"RH 7.04%, 90-0% RH",0.06652%
same,% dMass,"RH 10.28%, 90-0% RH",0.09978%
same,% dMass,"RH 13.58%, 90-0% RH",0.1304%
same,% dMass,"RH 16.86%, 90-0% RH",0.1619%
same,% dMass,"RH 20.06%, 90-0% RH",0.1952%
same,% dMass,"RH 23.26%, 90-0% RH",0.2311%
same,% dMass,"RH 26.5%, 90-0% RH",0.2661%
same,% dMass,"RH 29.66%, 90-0% RH",0.2993%
same,% dMass,"RH 31.08%, 36-0% RH",0.4009%
same,% dMass,"RH 32.76%, 90-0% RH",0.3335%
same,% dMass,"RH 33.94%, 36-0% RH",0.4315%
same,% dMass,"RH 35.96%, 90-0% RH",0.372%
same,% dMass,"RH 36.54%, 36-0% RH",0.4613%
same,% dMass,"RH 39.06%, 90-0% RH",0.4105%
same,% dMass,"RH 42.04%, 90-0% RH",0.449%
same,% dMass,"RH 45.12%, 90-0% RH",0.4963%
same,% dMass,"RH 48.12%, 90-0% RH",0.5418%
same,% dMass,"RH 51.08%, 90-0% RH",0.5943%
same,% dMass,"RH 54.12%, 90-0% RH",0.6608%
same,% dMass,"RH 57%, 90-0% RH",0.7291%
same,% dMass,"RH 59.94%, 90-0% RH",0.8219%
same,% dMass,"RH 62.72%, 90-0% RH",0.9076%
same,% dMass,"RH 65.6%, 90-0% RH",1.008%
